# Some of the results follow. Shown are side measurements of this screen, not its main read-out; they come without a call. Compounds called inactive in the main read-out are mostly missing here. Words in brackets tell the shape of the fitted curve; partial curves, single points and poor fits give uncertain potencies.
# Assay: IkB Signaling
# Conditions: ABC-DLBCL IkBa-CBG/CBR dual luciferase ratio (green luciferase fused to IkBa over red control in OCI-Ly3 lymphoma cells), 4 h
# Outline: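 In this assay, an IκBα–CBG68 fusion accumulates when IKK-driven degradation is blocked; native CBR normalizes for cell number. OCI-Ly3 cells were treated 4 h with compound and doxycycline, then green and red light read after Chroma-Glo addition.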
# [1] = measured here: control luc red channel unless noted
smiles,measurement,setting,value
Cc1coc2c(C)c3oc(=O)c(CCC(=O)N4CCCCC4)c(C)c3cc12,AC50,[1],"39.8 µM [falling, single point]"
O=C(Cn1ccc2cc(S(=O)(=O)N3CCCCCC3)ccc21)NCc1cccc(Cl)c1,AC50,[1],"0.631 µM [falling, full curve, poor fit]"
O=C(Cc1coc2ccc3ccccc3c12)N1CCN(c2ncccn2)CC1,AC50,[1],"25.1 µM [falling, single point]"
Cc1cc(O)cc(O)c1-c1onc(C(F)(F)F)c1-c1cscn1,AC50,[1],"12.6 µM [falling, partial curve]"
COCCn1c(C)cc(O)c(C(c2ccccc2Cl)N2CCCCC2)c1=O (centres undefined),AC50,[1],"0.0501 µM [falling, full curve]"
CCCN1CCN(CCCNC(=O)c2cc3c(s2)-c2ccccc2OC3)CC1,AC50,[1],"12.6 µM [falling, partial curve]"
N#Cc1ccccc1OCC(=O)N1CCN(c2ccccc2)CC1,AC50,[1],"39.8 µM [falling, single point]"
N=C(C[C@@H](O)COc1ccccc1-c1ccccc1)N1CCCCC1,AC50,[1],"31.6 µM [falling, partial curve]"
Cc1nc2c(c(C)c1CCC(=O)Nc1ccc(F)cc1)c(=O)n(C)c(=O)n2C,AC50,[1],"6.31 µM [falling, partial curve]"
CCc1cccc(-n2nnc(S(=O)(=O)c3ccc(OC)cc3)c2C)c1,AC50,[1],"2.51 µM [falling, partial curve]"
CCOC(=O)c1c(C)n(C)c2ccc(OCC(O)Cn3nc(C)c(Br)c3C)cc12 (centres undefined),AC50,[1],"15.8 µM [falling, partial curve]"
N#C/C(=C\c1cccs1)Sc1nc2ccccc2s1,AC50,[1],"31.6 µM [falling, single point]"
Cc1ccc(N(CC(O)Cn2c3ccccc3c3ccccc32)S(=O)(=O)c2ccc(F)cc2)cc1 (centres undefined),AC50,[1],"20 µM [falling, partial curve]"
Cc1cc(NC(=O)CSc2nc(-c3cccc(F)c3)nc3c2c(=O)n(C)c(=O)n3C)no1,AC50,[1],"20 µM [rising, partial curve]"
Cc1ccc2nc3sc(C(=O)N4CCOCC4)c(N)c3cc2c1,AC50,[1],"12.6 µM [falling, partial curve]"
CCOC(=O)c1ccc(N2CC3=C(C2=O)C(c2ccc(OC)cc2)NC(=O)N3C)cc1 (centres undefined),AC50,[1],"5.01 µM [rising, partial curve, poor fit]"
COc1ccc2c(Sc3ccc(C)cc3)c(C(=O)NCC(C)c3ccccc3)[nH]c2c1 (centres undefined),AC50,[1],"7.94 µM [falling, full curve]"
CCOC(=O)N1CCN(CCC(=O)c2ccc(Cl)cc2)CC1,AC50,[1],"31.6 µM [falling, single point]"
COc1ccccc1NC(=O)c1oc2ccccc2c1NC(=O)Cc1cccs1,AC50,[1],"0.631 µM [falling, full curve, poor fit]"
COc1cc2c(cc1OC)C(c1ccc(Cl)cc1)N(c1cccc(C#N)c1)C(=O)C2 (centres undefined),AC50,[1],"39.8 µM [falling, single point]"
CCOC(=O)c1cc(=O)n2[nH]c(-c3ccc(C)cc3)cc2n1,AC50,[1],"31.6 µM [falling, single point]"
CCc1nnc(NC(=O)CSc2nc3c([nH]c4ccccc43)c(=O)n2-c2ccc(F)cc2)s1,AC50,[1],"1 µM [rising, full curve, poor fit]"
N#CC1=C(N)N(c2ccc(Br)cc2)C2=C(C(=O)CCC2)C1c1cccnc1 (centres undefined),AC50,[1],"3.16 µM [falling, full curve]"
COc1ccccc1/C=C/c1onc(C)c1S(=O)(=O)N1CCC(C(=O)N2CCC(C)CC2)CC1,AC50,[1],"6.31 µM [rising, single point]"
O=C(CSc1nnc(-c2cccs2)n1CC1CCCO1)c1cc2ccccc2o1 (centres undefined),AC50,[1],"12.6 µM [falling, partial curve]"
CCOc1ccc(NC(=O)c2ccccc2CO)cc1,AC50,[1],"15.8 µM [falling, partial curve]"
CC(=O)N1CCN(c2ccc(NC(=O)c3ccc(C(C)(C)C)cc3)cc2)CC1,AC50,[1],"25.1 µM [falling, partial curve]"
COC(=O)c1sccc1S(=O)(=O)N(CC(=O)Nc1ccccc1C)c1ccc(Cl)cc1,AC50,[1],"10 µM [falling, partial curve]"
CC[C@@H]1CN2CCc3cc(OC)c(OC)cc3[C@H]2C[C@@H]1C[C@@H]1NCCc2cc(OC)c(OC)cc21,AC50,measured here: IkB-luc green channel,"0.158 µM [falling, full curve]"
same,AC50,measured here: control luc red channel,"0.2 µM [falling, full curve]"
COc1ccc2oc(=O)c(C(=O)NCCc3c(C)[nH]c4ccc(C)cc34)cc2c1,AC50,[1],"10 µM [falling, partial curve]"
O=C(Nc1ccccc1-c1nnn(CC(=O)N2CCCc3ccccc32)n1)c1ccco1,AC50,[1],"0.794 µM [falling, full curve]"
Cc1nn(-c2ccccc2)c(-n2cccc2)c1C(=O)N1CCN(c2ccccc2)CC1,AC50,[1],"7.94 µM [falling, partial curve]"
Cc1cc(OCC(=O)N(Cc2ccc(N(C)C)cc2)Cc2ccco2)cc(C)c1Cl,AC50,[1],"20 µM [falling, partial curve]"
CCOC(=O)c1ccc(OC(=O)c2cn(-c3ccc(C)cc3)c(=O)c3ccccc23)cc1,AC50,[1],"15.8 µM [falling, partial curve]"
COCCCN1C(=O)c2[nH]nc(-c3cc(C)ccc3O)c2C1c1ccc(F)cc1 (centres undefined),AC50,[1],"25.1 µM [falling, single point]"
COc1cc(-n2nc(C)c3c2OC(N)=C(C#N)C3c2ccccc2)c(Cl)c(Br)c1O (centres undefined),AC50,[1],"6.31 µM [falling, partial curve]"
Cc1nnc(SCCC(C)C)[nH]c1=O,AC50,[1],"12.6 µM [falling, partial curve]"
O=C(Nc1noc2ccccc12)c1cccc(Cl)c1Cl,AC50,[1],"0.2 µM [rising, full curve]"
COc1ccc(CNCCC(c2ccc(C)cc2)c2ccco2)cc1 (centres undefined),AC50,[1],"39.8 µM [falling, single point]"
Cc1cccc(OCC(=O)Nc2ccc(S(=O)(=O)Nc3onc(C)c3C)cc2)c1C,AC50,[1],"10 µM [falling, partial curve]"
Clc1cccc(-n2ncc3c(Nc4ccc5c(c4)OCCO5)ncnc32)c1,AC50,[1],"0.631 µM [falling, full curve]"
CC(=O)N1CCc2cc(S(=O)(=O)NC(Cc3ccccc3)C(=O)Nc3ccc(C)cc3C)ccc21 (centres undefined),AC50,[1],"20 µM [falling, partial curve]"
CC(C)Oc1ccccc1C1CC(=O)Nc2cc3c(cc21)OCO3 (centres undefined),AC50,[1],"25.1 µM [falling, partial curve]"
O=c1cc2nc(-c3ccccc3)nc(SCCOc3ccc(Cl)cc3)n2[nH]1,AC50,[1],"0.251 µM [rising, partial curve]"
COc1ccc(C(=O)Nc2ccc3oc(-c4cc(Cl)ccc4Cl)nc3c2)cc1Br,AC50,[1],"6.31 µM [falling, partial curve]"
COc1ccc(CCNC(=O)CCn2c(=O)c3ccccc3n(CC(=O)Nc3cc(Cl)ccc3C)c2=O)cc1OC,AC50,[1],"1.58 µM [rising, full curve, poor fit]"
CC(=O)c1cccc(NC(=O)CCCSc2nc(-c3ccco3)cc(C(F)(F)F)n2)c1,AC50,[1],"31.6 µM [falling, single point]"
COc1ccc(NC(=O)CN2C(=O)C(c3ccc(C)cc3)=NC23CCCCCC3)cc1Cl,AC50,[1],"12.6 µM [falling, partial curve]"
COc1cccc(-c2nc(SCC(=O)NCC3CCCO3)c(-c3ccc(Cl)cc3)[nH]2)c1 (centres undefined),AC50,[1],"25.1 µM [falling, partial curve]"
CN(C)CCNC(=O)C(=O)NCC(c1cccnc1)N1CCN(c2ccccc2)CC1 (centres undefined),AC50,[1],"25.1 µM [falling, single point]"
O=C(c1ccccc1Br)N(Cc1ccccc1F)C1CCS(=O)(=O)C1 (centres undefined),AC50,[1],"39.8 µM [falling, single point]"
CCC(C)NC(=O)CSCc1nc(-c2ccc(C)cc2)oc1C (centres undefined),AC50,[1],"25.1 µM [falling, single point]"
Cc1cccc(CC(=O)NCCc2sc3nc(-c4ccc(F)cc4)nn3c2C)c1,AC50,[1],"39.8 µM [falling, single point]"
COc1ccc(-c2noc(CCC(=O)NCCCN3CCC(Cc4ccccc4)CC3)n2)cc1,AC50,[1],"10 µM [falling, partial curve]"
N#Cc1ccccc1NC(=O)CSc1nnc(-c2ccccc2O)n1-c1ccccc1,AC50,[1],"15.8 µM [falling, partial curve]"
Cc1ccn2cc(C(=O)Nc3ccc4c(c3)OCCO4)nc2c1,AC50,[1],"25.1 µM [falling, single point]"
Cc1ccc(Cl)cc1NC(=O)CSCc1cnn(-c2ccccc2)c1-n1cccc1,AC50,[1],"25.1 µM [falling, single point]"
CCCCn1c(SCc2ncc(-c3ccccc3)o2)nc2cc(S(N)(=O)=O)ccc21,AC50,[1],"7.94 µM [falling, partial curve]"
O=C(Cn1c(=O)ccc2cc(S(=O)(=O)N3CCCC3)ccc21)Nc1ccc(Cl)cc1,AC50,[1],"20 µM [falling, partial curve]"
Cn1nnnc1SCCCNCc1ccccc1OCc1ccc(F)cc1,AC50,[1],"25.1 µM [falling, single point]"
COc1ccc(CNC(=O)CSc2ncc3c(n2)-c2cc(Cl)ccc2N(C)S3(=O)=O)cc1,AC50,[1],"39.8 µM [rising, single point]"
CCN1C(=O)c2ccccc2Sc2ccc(NC(=O)c3cccc(C)c3)cc21,AC50,[1],"25.1 µM [falling, partial curve]"
Cc1ccc(NC(=O)Nc2cccs2)c(C)c1,AC50,[1],"1 µM [rising, full curve]"

# Part of the list above in another layout:
smiles	measurement	setting	value
COCCn1c(C)cc(O)c(C(c2ccccc2Cl)N2CCCCC2)c1=O (centres undefined)	AC50	[1]	0.0501 µM [falling, full curve]
CCCN1CCN(CCCNC(=O)c2cc3c(s2)-c2ccccc2OC3)CC1	AC50	[1]	12.6 µM [falling, partial curve]
N#Cc1ccccc1OCC(=O)N1CCN(c2ccccc2)CC1	AC50	[1]	39.8 µM [falling, single point]
N=C(C[C@@H](O)COc1ccccc1-c1ccccc1)N1CCCCC1	AC50	[1]	31.6 µM [falling, partial curve]
